Measured values: PubChem BioAssay AID504834 (National Center for Advancing Translational Sciences (NCATS), 2011)
The whole screen tested about 320,000 compounds, of which about 22,000 (6.9%) were called active. The shares of active, inactive and inconclusive entries below differ from those in the screen. Calls come from the whole dose curve; as a rule, active = well fitted inhibition curve with a large enough effect; inconclusive = small, poorly fitted or top-dose-only effect, or another doubt; inactive = no such curve, though single readings can be large or run the other way. Potencies of inconclusive entries are doubtful fits and often do not repeat.

Test: Primary qHTS for delayed death inhibitors of the malarial parasite plastid, 96 hour incubation
Details: P. falciparum luciferase reporter growth; series mostly up to 28.7 µM
How it was run: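 Two parasite generations (96 h, 37 C, 5% CO2) of compound exposure in infected erythrocytes (0.05% parasitemia, 2% hematocrit). Luciferase-reporter P. falciparum; decreased luminescence indicates inhibited growth, aimed at apicoplast-acting delayed death.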
Potency is the fitted concentration of half-maximal effect.

Structure (SMILES)	Potency
Cn1cnnc1SCC(=O)NCCc1ccc(Cl)cc1Cl	inconclusive: 2.94 µM [inhibitor, single point]
c1ccc(-c2ccc(-n3ccnc3)cc2)cc1	inconclusive: 13.1 µM [inhibitor, partial curve, poor fit]
CCCCN(Cc1cc2cccc(C)c2[nH]c1=O)S(C)(=O)=O	inactive
C/C(=N/NC(=O)c1ccc(NC(=O)c2ccc(F)cc2)cc1)c1ccccc1	inconclusive: 0.0657 µM [inhibitor, full curve, poor fit]
Cc1cc(C)c(S(=O)(=O)N2CCN(C(=O)c3c(C)noc3C)CC2)c(C)c1	inconclusive: 11.7 µM [inhibitor, single point]
COc1cc(NS(=O)(=O)c2cc(C)ccc2OC)c(OC)cc1Cl	inconclusive: 10.4 µM [inhibitor, partial curve, poor fit]
N#Cc1nc(COc2ccc(Br)cc2)oc1N1CCCCCC1	inconclusive: 18.5 µM [inhibitor, single point]
CC1=CS(=O)(=O)CC1Sc1nc2ccccc2[nH]1 (stereo not given)	inactive
O=C(Nc1cc(Br)ccc1O)C1CC(c2c(F)cccc2Cl)=NO1 (stereo not given)	inconclusive: 13.1 µM [inhibitor, single point]
C/C(N)=C(/C#N)C(=O)CN1CCCCC1	inactive
CCCOc1ccc(N2C(=O)C3ON(c4ccccc4)C(CCC)C3C2=O)cc1 (stereo not given)	inactive
CN1C(C(=O)Nc2ccc(F)cc2F)=CC(c2ccco2)=NS1(=O)=O	inactive
O=S(=O)(c1ccc(F)cc1)N1CCC2(CC1)OCCN2S(=O)(=O)c1cccs1	inconclusive: 9.28 µM [inhibitor, single point]
CCN(CC)S(=O)(=O)c1ccc2c(c1)nc(CCC(=O)Nc1ccc3c(c1)OCO3)n2C	active: 9.28 µM
COc1cccc(-n2nnnc2SCC(=O)Nc2ccc(OC)cc2OC)c1	inactive
C(=C\c1ccccc1)/CNn1cnnc1	inconclusive: 11.7 µM [inhibitor, single point]
CN(Cc1ccccc1)C(=O)c1ccc(NC(=O)Cc2cccc(NC(=O)C3CCCN(C(=O)C4CCC4)C3)c2)cc1 (stereo not given)	inconclusive: 11.7 µM [inhibitor, single point]
CCc1ccc2nc(N(CCCN(C)C)C(=O)c3ccc(S(=O)(=O)N4CCCc5ccccc54)cc3)sc2c1	inconclusive: 18.5 µM [inhibitor, single point]
CCN1C(=O)[C@H]2[C@@H](c3ccccc3)N3C(=O)N(c4cccc(F)c4)C(=O)[C@@]3(CC(C)C)[C@H]2C1=O	inactive
CCOc1cc(/C=C\[N+](=O)[O-])ccc1OCC(=O)N1CCOCC1	inconclusive: 10.4 µM [inhibitor, partial curve, poor fit]
CC(=O)Nc1ccc(SC[C@H](c2ccccc2)N2CCN(CCc3ccccc3)CCC2=O)cc1	active: 7.38 µM
Cc1cccn2c(=O)c(C(=O)NCCCN3CCCCC3C)c(O)nc12 (stereo not given)	inconclusive: 20.8 µM [inhibitor, partial curve, poor fit]
NC(=O)CSc1ncc(-c2ccc([N+](=O)[O-])cc2)[nH]1	inactive
Cc1ccccc1C(=O)Nc1ccc(-c2nc3ccc(C(=O)c4ccccc4)cc3[nH]2)cc1	inconclusive: 11.7 µM [inhibitor, single point]

Structure (SMILES)	Potency
NC(=O)c1ccc(N=Cc2c(O)n(Cc3ccco3)c(=O)[nH]c2=O)cc1	inactive
CN1CCN(NC(=O)CN2C(=O)S/C(=C\c3c(Cl)cccc3Cl)C2=O)CC1	inconclusive: 11.7 µM [inhibitor, single point]
CCN(CC)CCNC(=O)Cn1nc(-c2ccc(C)cc2)ccc1=O	inconclusive: 3.7 µM [inhibitor, full curve, poor fit]
O=[n+]1c2c(n([O-])c3cc(Cl)ccc31)CCCC2	inconclusive: 18.5 µM [inhibitor, partial curve, poor fit]
O=C(/C(=N/N=C/c1ccc(O)c(O)c1)c1ccccc1)c1ccccc1	inconclusive: 13.1 µM [inhibitor, single point]
C[C@@]12C(=O)N(c3ccc(F)cc3)C(=O)N1[C@@H]1c3ccccc3OC[C@@H]1[C@H]2c1ccccc1	inconclusive: 4.15 µM [inhibitor, partial curve, poor fit]
COC(=O)C1=C(c2c(C)noc2C)C[C@@H]2CC[C@H]1N2C(=O)NCc1ccc(F)cc1	inactive
CCOc1ccc(NC(=O)CCS(=O)(=O)c2ccc3c(c2)CCCN3C(C)=O)cc1	inactive
COCCN(Cc1cc2cc3c(cc2n2nnnc12)OCO3)C(=O)c1ccccc1F	inconclusive: 18.5 µM [inhibitor, single point]
O=C(NC1CCCCCCC1)c1cc(F)c(F)cc1Cl	inconclusive: 0.828 µM [inhibitor, partial curve, poor fit]
CCN(CC)C(=O)CSC1=N/C(=C/c2ccco2)C(=O)N1c1ccc(OC)c(Cl)c1	inconclusive: 18.5 µM [inhibitor, single point]
CC(NC(=O)/C(C#N)=C/c1cn[nH]c1-c1ccccc1)c1ccccc1 (stereo not given)	inconclusive: 18.5 µM [inhibitor, single point]
Cn1c2c(c(=O)n(C)c1=O)C(C(F)(F)F)(C(F)(F)F)N=C(c1ccc(Cl)cc1)N2	active: 1.47 µM
CCC(=O)N1CCN(c2ccc(NC(=O)c3c(F)c(F)c(OC)c(F)c3F)cc2)CC1	inconclusive: 1.47 µM [inhibitor, partial curve, poor fit]
Cc1cc(C)nc(N2C(=O)CC(Cc3ccc(Cl)cc3)C2=O)n1 (stereo not given)	inactive
COc1cccc(/C=C(/C(=O)OCC(=O)NC2CCCC(C)C2C)c2ccccc2)c1 (stereo not given)	inconclusive: 11.7 µM [inhibitor, partial curve]
CC(=O)Nc1cccc(NS(=O)(=O)Cc2ccc(Cl)cc2)c1	active: 14.7 µM
COc1ccc(OC)c(NC(=O)CSc2nnc(CNC(=O)c3ccco3)o2)c1	active: 2.62 µM
COc1cccc(C(=O)NC2CCSC2=O)c1 (stereo not given)	inconclusive: 9.28 µM [inhibitor, single point]
O=C(NS(=O)(=O)c1ccc(Cl)cc1)c1ccccc1	inactive
COc1ccccc1NC(=O)C1C2C=CC3(CN(Cc4cccnc4)C(=O)C13)O2 (stereo not given)	inconclusive: 18.5 µM [inhibitor, single point]
CCc1ccccc1N=C1S/C(=C/c2ccccc2OCC(=O)N2CCOCC2)C(=O)N1C	inconclusive: 18.5 µM [inhibitor, single point]
Cc1ccc(Nc2nc(-c3sc(NC(=O)c4ccco4)nc3C)cs2)cc1	inconclusive: 10.4 µM [inhibitor, single point]
O=C(c1cc(-c2ccccc2)on1)N1CCCc2ccccc21	inactive

Structure (SMILES)	Potency
CC(=O)Oc1cc2c(C(=O)NCCN3CCOCC3)c(C)oc2c2ccccc12	inactive
Cc1ccccc1C(=O)O/N=C(\N)c1ccncc1	inconclusive: 11.7 µM [inhibitor, single point]
CC(C)(C)C1CCC(=NNc2nc3ccccc3[nH]2)CC1 (stereo not given)	inconclusive: 9.28 µM [inhibitor, partial curve]
Cc1cc(NC(=O)c2n[nH]c(=O)c3ccccc23)ccc1Br	inconclusive: 0.465 µM [inhibitor, partial curve, poor fit]
C=CCNC(=O)Cn1nc(-c2ccccc2)ccc1=O	inconclusive: 9.28 µM [inhibitor, partial curve]
Cc1cc(=O)oc2cc(OCC(=O)N3C[C@H]4C[C@@H](C3)c3cccc(=O)n3C4)c(Cl)cc12	inconclusive: 18.5 µM [inhibitor, single point]
CCOC(=O)c1cnc2ccc(C)cc2c1Sc1ccc(F)cc1	inconclusive: 0.0928 µM [inhibitor, full curve]
C=CCc1cccc(CNn2cnnc2)c1O	inconclusive: 18.5 µM [inhibitor, single point]
COC(=O)CC(c1ccccc1F)N1Cc2ccccc2C1=O (stereo not given)	inactive
Cc1cccc(CCNC(=O)C2CCN(S(=O)(=O)c3cccc4cccnc34)CC2)c1	inactive
Cc1ncc(CO)c(/C=N/NC(=S)Nc2ccc(C(C)C)cc2)c1O	active: 11.7 µM
COc1ccc(N(C(=O)c2cccnc2)S(=O)(=O)c2ccc3c4c(cccc24)C(=O)N3C)cc1	inconclusive: 18.5 µM [inhibitor, single point]
CCCCn1c(=O)[nH]c(=O)c2c1nc(-c1ccc(OCCC)c(OCC)c1)n2CCOC	inconclusive: 10.4 µM [inhibitor, partial curve]
CC(C)CCNC(=O)c1nnc(Cc2ccc(Cl)cc2)o1	active: 8.28 µM
Cc1ccc(C)c(OCC(O)CN2CCC(CN3C(=O)c4cccc5cccc(c45)C3=O)CC2)c1 (stereo not given)	inactive
COCCC(=O)N1CCC(Oc2ccc(C(=O)NCc3nccn3C)cc2)CC1	inconclusive: 18.5 µM [inhibitor, single point]
CN(C(=O)COc1cc(=O)n(C)c2ccccc12)c1ccc(Br)cc1	active: 10.4 µM
CCOc1ccc(NC(=S)N2CCC(c3ccc(C)cc3)C2)cc1 (stereo not given)	inactive
Cc1ccc(/C=N/NC(=O)c2cccs2)o1	inactive
O=C(COc1cccc(Cl)c1)Nc1ccc2c(c1)CCC2	inactive
CCOc1cc(/C=C2\CCCC(C(=O)C(F)(F)F)=C2O)ccc1O	inactive
CCC(CC)c1nc(C#N)c(NCc2ccccc2)o1	inconclusive: 13.1 µM [inhibitor, partial curve]

3 entries drawn at random from those above:
Structure (SMILES)	Potency
CC(C)(C)C1CCC(=NNc2nc3ccccc3[nH]2)CC1 (stereo not given)	inconclusive: 9.28 µM [inhibitor, partial curve]
CCCCn1c(=O)[nH]c(=O)c2c1nc(-c1ccc(OCCC)c(OCC)c1)n2CCOC	inconclusive: 10.4 µM [inhibitor, partial curve]
C=CCNC(=O)Cn1nc(-c2ccccc2)ccc1=O	inconclusive: 9.28 µM [inhibitor, partial curve]
